In paper PMC4858382:
No constants are given. Whether binding was seen depends on the method and setting. In cells and extracts the contact can be indirect. Some binding calls cover weakened binding; strength is not graded here. For part of these data: Where a sequence is shown, tags or fusion partners need not be part of it.

Amino acid sequences for entries named in this document (tags omitted).
UniProt O15078: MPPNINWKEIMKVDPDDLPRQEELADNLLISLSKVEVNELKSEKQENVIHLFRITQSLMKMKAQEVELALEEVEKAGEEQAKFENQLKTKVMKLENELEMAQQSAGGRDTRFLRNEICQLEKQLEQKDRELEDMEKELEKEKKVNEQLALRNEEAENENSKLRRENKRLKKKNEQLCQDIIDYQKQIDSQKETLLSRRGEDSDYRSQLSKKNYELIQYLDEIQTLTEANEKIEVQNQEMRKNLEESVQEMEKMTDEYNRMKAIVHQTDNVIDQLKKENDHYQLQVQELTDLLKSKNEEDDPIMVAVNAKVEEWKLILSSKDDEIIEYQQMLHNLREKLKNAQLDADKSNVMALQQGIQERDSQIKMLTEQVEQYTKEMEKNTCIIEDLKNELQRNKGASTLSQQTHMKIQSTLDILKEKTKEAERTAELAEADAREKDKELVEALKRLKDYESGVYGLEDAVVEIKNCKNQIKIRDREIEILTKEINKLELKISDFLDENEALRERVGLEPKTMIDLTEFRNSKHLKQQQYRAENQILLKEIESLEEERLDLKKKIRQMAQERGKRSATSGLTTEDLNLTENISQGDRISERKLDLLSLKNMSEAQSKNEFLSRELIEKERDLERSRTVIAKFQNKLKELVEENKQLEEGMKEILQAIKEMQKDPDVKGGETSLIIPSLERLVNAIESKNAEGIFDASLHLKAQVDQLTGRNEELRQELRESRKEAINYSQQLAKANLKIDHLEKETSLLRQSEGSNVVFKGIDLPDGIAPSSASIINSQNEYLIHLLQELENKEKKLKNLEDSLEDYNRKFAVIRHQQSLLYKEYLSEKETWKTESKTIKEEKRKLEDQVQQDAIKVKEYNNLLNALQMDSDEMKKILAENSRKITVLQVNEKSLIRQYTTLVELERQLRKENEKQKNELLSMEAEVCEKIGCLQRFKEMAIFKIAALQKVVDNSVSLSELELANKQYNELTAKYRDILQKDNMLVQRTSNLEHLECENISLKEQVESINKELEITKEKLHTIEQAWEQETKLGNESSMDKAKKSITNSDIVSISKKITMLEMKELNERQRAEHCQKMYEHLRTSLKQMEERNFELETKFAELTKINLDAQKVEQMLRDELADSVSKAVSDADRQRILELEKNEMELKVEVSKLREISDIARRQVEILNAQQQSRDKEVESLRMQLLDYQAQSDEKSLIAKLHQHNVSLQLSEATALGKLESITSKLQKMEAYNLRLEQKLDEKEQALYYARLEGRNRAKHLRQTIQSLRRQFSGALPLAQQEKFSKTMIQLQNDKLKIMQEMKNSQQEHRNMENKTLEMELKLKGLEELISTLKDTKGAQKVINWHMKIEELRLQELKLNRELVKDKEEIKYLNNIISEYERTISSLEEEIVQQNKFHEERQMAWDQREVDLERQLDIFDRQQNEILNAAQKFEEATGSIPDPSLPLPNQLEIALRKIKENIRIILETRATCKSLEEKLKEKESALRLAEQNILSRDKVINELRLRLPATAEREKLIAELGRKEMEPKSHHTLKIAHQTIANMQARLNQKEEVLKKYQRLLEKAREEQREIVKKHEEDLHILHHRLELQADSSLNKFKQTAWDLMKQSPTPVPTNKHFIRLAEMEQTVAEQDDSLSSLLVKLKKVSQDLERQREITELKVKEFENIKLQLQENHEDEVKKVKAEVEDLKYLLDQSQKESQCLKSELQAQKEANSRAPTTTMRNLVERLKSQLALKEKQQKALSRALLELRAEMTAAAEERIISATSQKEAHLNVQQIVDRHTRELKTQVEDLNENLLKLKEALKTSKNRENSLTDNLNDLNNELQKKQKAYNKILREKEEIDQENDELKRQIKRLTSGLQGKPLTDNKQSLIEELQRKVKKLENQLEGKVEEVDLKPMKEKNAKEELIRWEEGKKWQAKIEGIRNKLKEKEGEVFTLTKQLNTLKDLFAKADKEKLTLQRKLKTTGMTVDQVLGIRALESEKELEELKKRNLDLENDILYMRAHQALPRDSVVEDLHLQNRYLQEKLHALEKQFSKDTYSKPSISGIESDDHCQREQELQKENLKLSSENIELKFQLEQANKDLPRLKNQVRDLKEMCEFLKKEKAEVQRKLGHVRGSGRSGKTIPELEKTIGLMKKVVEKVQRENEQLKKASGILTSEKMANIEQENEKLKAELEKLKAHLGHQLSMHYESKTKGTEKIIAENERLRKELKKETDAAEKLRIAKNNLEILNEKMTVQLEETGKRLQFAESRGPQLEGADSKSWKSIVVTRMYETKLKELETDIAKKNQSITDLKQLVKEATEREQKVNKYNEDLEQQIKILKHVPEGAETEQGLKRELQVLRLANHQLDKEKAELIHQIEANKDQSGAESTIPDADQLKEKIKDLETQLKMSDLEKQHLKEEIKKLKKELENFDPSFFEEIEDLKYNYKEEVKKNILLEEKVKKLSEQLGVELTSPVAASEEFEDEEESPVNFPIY
UniProt Q4AC94: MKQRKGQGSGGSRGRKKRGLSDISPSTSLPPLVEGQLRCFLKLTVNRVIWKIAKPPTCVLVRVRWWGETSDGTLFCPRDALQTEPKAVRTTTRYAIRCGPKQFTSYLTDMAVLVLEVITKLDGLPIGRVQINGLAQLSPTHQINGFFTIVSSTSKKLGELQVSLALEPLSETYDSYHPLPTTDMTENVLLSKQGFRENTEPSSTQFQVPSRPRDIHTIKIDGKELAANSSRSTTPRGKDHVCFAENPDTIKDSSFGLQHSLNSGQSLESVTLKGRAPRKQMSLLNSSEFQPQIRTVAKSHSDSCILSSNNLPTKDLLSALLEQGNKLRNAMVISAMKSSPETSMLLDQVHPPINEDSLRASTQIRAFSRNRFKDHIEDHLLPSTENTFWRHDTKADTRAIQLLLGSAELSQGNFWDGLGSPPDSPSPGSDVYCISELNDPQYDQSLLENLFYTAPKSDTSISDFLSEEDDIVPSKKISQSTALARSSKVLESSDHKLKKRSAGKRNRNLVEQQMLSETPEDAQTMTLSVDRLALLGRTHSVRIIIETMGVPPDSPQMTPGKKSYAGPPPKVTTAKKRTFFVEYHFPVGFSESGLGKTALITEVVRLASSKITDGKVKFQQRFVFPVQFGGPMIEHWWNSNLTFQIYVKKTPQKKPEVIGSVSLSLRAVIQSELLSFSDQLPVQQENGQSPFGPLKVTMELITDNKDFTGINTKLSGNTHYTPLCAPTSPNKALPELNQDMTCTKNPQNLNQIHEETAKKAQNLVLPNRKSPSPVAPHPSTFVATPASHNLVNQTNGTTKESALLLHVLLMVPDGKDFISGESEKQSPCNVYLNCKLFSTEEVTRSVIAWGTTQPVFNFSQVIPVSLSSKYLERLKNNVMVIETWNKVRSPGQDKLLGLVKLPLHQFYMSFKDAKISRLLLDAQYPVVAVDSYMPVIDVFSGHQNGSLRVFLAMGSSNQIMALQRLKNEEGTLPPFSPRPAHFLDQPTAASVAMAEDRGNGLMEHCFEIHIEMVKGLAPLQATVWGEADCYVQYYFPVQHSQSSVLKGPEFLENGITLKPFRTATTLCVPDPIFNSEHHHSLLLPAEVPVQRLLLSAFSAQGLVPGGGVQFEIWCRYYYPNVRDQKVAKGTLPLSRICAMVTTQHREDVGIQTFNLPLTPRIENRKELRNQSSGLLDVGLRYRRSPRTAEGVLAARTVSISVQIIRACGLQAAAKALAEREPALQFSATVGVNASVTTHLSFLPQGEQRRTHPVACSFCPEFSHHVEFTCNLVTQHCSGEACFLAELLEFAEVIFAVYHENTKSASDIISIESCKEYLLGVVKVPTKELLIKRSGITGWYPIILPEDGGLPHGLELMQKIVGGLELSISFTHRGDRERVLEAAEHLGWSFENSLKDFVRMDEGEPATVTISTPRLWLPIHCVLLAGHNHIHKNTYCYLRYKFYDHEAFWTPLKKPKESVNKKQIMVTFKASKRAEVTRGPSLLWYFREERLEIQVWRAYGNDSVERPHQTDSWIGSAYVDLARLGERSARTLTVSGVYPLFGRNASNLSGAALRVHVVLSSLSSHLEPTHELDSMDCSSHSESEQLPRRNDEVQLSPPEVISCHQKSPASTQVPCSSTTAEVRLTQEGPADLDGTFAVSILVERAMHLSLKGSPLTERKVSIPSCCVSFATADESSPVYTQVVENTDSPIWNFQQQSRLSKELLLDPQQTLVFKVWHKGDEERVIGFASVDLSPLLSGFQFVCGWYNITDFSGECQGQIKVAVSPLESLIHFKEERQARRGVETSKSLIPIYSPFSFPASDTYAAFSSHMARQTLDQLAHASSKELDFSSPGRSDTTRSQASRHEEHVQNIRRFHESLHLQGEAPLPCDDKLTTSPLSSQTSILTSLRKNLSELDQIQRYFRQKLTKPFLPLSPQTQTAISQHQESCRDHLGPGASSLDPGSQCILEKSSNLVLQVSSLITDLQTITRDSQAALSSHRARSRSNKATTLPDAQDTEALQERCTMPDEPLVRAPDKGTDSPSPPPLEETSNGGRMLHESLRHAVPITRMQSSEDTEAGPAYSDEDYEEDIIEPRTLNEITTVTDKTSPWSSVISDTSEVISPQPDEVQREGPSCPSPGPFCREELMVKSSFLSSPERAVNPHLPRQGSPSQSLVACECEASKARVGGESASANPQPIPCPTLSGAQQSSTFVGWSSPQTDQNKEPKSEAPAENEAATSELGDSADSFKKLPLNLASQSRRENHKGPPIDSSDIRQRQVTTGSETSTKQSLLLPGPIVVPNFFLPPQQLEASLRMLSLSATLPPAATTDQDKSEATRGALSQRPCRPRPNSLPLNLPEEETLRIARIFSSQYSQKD

T1: Myc-mPCM1 fragment spanning residues 1–1200 (mouse) (UniProt Q9R0L6)
T1 sequence: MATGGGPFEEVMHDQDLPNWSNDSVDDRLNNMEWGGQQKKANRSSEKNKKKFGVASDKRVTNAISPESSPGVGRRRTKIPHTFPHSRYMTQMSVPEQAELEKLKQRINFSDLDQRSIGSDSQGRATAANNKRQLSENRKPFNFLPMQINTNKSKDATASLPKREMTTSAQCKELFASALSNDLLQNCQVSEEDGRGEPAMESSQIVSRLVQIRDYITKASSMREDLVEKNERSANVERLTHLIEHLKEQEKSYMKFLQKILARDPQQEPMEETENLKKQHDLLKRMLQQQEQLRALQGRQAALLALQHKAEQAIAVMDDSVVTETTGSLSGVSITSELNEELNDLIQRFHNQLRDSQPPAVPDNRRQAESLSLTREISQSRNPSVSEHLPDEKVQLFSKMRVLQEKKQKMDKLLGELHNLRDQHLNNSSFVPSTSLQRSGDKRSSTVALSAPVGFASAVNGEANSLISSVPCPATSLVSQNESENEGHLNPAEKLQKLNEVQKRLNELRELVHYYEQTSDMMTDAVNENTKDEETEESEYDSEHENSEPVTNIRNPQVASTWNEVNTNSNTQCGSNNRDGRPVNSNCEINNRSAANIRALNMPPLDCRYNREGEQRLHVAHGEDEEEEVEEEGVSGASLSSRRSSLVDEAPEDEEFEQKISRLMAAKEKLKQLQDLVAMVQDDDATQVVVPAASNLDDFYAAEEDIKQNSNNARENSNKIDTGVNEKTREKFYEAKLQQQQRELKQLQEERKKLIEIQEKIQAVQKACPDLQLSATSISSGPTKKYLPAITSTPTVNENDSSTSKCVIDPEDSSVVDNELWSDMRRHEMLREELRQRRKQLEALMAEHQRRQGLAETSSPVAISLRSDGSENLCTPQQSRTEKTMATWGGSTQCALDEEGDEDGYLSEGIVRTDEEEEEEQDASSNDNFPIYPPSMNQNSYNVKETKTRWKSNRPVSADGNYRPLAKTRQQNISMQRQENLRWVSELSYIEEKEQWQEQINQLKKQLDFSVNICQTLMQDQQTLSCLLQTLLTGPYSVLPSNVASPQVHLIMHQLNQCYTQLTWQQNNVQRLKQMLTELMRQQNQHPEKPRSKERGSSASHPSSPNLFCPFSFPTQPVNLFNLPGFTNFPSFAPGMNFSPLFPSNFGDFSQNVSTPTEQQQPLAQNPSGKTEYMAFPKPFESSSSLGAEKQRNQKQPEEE

T2: Myc-mPCM1 fragment spanning residues 1–1500 (mouse) (UniProt Q9R0L6)
T2 sequence: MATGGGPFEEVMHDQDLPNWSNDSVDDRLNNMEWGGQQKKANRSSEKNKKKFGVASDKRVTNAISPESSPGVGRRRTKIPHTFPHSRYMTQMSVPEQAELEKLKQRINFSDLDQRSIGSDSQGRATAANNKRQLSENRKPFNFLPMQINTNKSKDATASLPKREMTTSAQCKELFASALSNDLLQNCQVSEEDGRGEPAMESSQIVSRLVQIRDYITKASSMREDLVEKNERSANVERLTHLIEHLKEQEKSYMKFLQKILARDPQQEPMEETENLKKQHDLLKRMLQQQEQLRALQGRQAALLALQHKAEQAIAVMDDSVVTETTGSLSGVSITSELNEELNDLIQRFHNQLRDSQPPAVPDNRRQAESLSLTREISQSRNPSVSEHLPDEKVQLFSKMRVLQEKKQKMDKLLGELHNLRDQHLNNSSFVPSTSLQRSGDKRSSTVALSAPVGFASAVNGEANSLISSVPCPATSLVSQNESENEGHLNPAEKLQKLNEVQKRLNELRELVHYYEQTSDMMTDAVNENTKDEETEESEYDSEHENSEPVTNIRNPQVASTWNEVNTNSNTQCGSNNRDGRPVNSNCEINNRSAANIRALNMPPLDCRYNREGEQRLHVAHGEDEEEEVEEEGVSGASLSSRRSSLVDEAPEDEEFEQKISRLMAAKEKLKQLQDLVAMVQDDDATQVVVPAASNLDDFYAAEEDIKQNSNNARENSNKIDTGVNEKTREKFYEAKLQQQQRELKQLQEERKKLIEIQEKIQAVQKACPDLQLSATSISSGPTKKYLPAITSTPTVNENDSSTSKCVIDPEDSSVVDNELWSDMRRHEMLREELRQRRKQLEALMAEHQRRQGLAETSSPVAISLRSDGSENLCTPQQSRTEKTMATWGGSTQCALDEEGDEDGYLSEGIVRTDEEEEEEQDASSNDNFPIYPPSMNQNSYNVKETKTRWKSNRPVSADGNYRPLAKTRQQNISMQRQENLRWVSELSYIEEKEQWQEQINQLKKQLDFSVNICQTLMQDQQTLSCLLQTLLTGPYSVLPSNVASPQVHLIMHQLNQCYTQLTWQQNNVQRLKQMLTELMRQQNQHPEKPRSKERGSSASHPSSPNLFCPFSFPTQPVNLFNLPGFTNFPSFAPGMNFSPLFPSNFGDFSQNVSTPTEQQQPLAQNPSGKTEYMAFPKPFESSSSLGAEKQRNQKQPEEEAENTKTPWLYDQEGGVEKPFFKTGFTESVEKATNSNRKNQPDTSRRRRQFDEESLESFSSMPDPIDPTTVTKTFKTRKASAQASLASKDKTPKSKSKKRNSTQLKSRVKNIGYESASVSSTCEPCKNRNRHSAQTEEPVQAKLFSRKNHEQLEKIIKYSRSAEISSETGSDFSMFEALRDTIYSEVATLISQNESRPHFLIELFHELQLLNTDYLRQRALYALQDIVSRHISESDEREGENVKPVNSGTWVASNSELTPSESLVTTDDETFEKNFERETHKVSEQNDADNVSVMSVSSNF


Columns and labels:
[1] = biological target: T1, Myc-mPCM1 fragment spanning residues 1–1200 (mouse); test: co-IP; data not shown: Cep290 with PCM1 fragments
[2] = biological target: T2, Myc-mPCM1 fragment spanning residues 1–1500 (mouse); test: co-IP; data not shown: Cep290 with PCM1 fragments
[3] = biological target: T1, Myc-mPCM1 fragment spanning residues 1–1200 (mouse); test: co-IP; HEK293T transfected with Myc-mPCM1 fragments for 48 h; lysates in ELB buffer (50 mM Hepes pH 7, 150 mM NaCl, 5 mM EDTA, 0.1% NP-40); anti-Myc antibody on Protein G Sepharose, 4°C; western blot for endogenous satellite proteins
[4] = biological target: Myc-tagged full-length mouse PCM1 (mouse) (UniProt Q9R0L6); test: as above
[5] = biological target: T2, Myc-mPCM1 fragment spanning residues 1–1500 (mouse); test: as above

binding [1]	binding [2]	binding [3]	binding [4]	binding [5]	Molecule
binds	binds	–	–	–	Cep290, endogenous (from UniProt O15078 1-2479)
–	–	no binding	binds	–	C2CD3, endogenous (from UniProt Q4AC94 1-2353)
–	–	no binding	binds	–	Cep90, endogenous (protein, UniProt Q8WXW3 1-757) MSRKISKESKKVNISSSLESEDISLETTVPTDDISSSEEREGKVRITRQLIERKELLHNIQLLKIELSQKTMMIDNLKVDYLTKIEELEEKLNDALHQKQLLTLRLDNQLAFQQKDASKYQELMKQEMETILLRQKQLEETNLQLREKAGDVRRNLRDFELTEEQYIKLKAFPEDQLSIPEYVSVRFYELVNPLRKEICELQVKKNILAEELSTNKNQLKQLTETYEEDRKNYSEVQIRCQRLALELADTKQLIQQGDYRQENYDKVKSERDALEQEVIELRRKHEILEASHMIQTKERSELSKEVVTLEQTVTLLQKDKEYLNRQNMELSVRCAHEEDRLERLQAQLEESKKAREEMYEKYVASRDHYKTEYENKLHDELEQIRLKTNQEIDQLRNASREMYERENRNLREARDNAVAEKERAVMAEKDALEKHDQLLDRYRELQLSTESKVTEFLHQSKLKSFESERVQLLQEETARNLTQCQLECEKYQKKLEVLTKEFYSLQASSEKRITELQAQNSEHQARLDIYEKLEKELDEIIMQTAEIENEDEAERVLFSYGYGANVPTTAKRRLKQSVHLARRVLQLEKQNSLILKDLEHRKDQVTQLSQELDRANSLLNQTQQPYRYLIESVRQRDSKIDSLTESIAQLEKDVSNLNKEKSALLQTKNQMALDLEQLLNHREELAAMKQILVKMHSKHSENSLLLTKTEPKHVTENQKSKTLNVPKEHEDNIFTPKPTLFTKKEAPEWSKKQKMKT
–	–	binds	binds	binds	OFD1, endogenous (protein, UniProt O75665 1-1012) MMAQSNMFTVADVLSQDELRKKLYQTFKDRGILDTLKTQLRNQLIHELMHPVLSGELQPRSISVEGSSLLIGASNSLVADHLQRCGYEYSLSVFFPESGLAKEKVFTMQDLLQLIKINPTSSLYKSLVSGSDKENQKGFLMHFLKELAEYHQAKESCNMETQTSSTFNRDSLAEKLQLIDDQFADAYPQRIKFESLEIKLNEYKREIEEQLRAEMCQKLKFFKDTEIAKIKMEAKKKYEKELTMFQNDFEKACQAKSEALVLREKSTLERIHKHQEIETKEIYAQRQLLLKDMDLLRGREAELKQRVEAFELNQKLQEEKHKSITEALRRQEQNIKSFEETYDRKLKNELLKYQLELKDDYIIRTNRLIEDERKNKEKAVHLQEELIAINSKKEELNQSVNRVKELELELESVKAQSLAITKQNHMLNEKVKEMSDYSLLKEEKLELLAQNKLLKQQLEESRNENLRLLNRLAQPAPELAVFQKELRKAEKAIVVEHEEFESCRQALHKQLQDEIEHSAQLKAQILGYKASVKSLTTQVADLKLQLKQTQTALENEVYCNPKQSVIDRSVNGLINGNVVPCNGEISGDFLNNPFKQENVLARMVASRITNYPTAWVEGSSPDSDLEFVANTKARVKELQQEAERLEKAFRSYHRRVIKNSAKSPLAAKSPPSLHLLEAFKNITSSSPERHIFGEDRVVSEQPQVGTLEERNDVVEALTGSAASRLRGGTSSRRLSSTPLPKAKRSLESEMYLEGLGRSHIASPSPCPDRMPLPSPTESRHSLSIPPVSSPPEQKVGLYRRQTELQDKSEFSDVDKLAFKDNEEFESSFESAGNMPRQLEMGGLSPAGDMSHVDAAAAAVPLSYQHPSVDQKQIEEQKEEEKIREQQVKERRQREERRQSNLQEVLERERRELEKLYQERKMIEESLKIKIKKELEMENELEMSNQEIKDKSAHSENPLEKYMKIIQQEQDQESADKSSKKMVQEGSLVDTLQSSDKVESLTGFSHEELDDSW
